Results on 9 molecules are retold here after PubChem BioAssay AID292 (DTP/NCI, 2004).

This test deals with B6C3F1 mice, ip Sarcoma M5076, median survival T/C. Briefly: NCI In Vivo Anticancer Drug Screen. Data for tumor model Sarcoma M5076 (intraperitoneal) in B6C3F1 mice. To be noted: T/C endpoint: median survival time, higher T/C = longer survival. The procedure, abridged: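 Mice carrying the transplanted tumour received compound treatment. Survival was recorded, and each value is the treated-group measurement divided by that of the vehicle-dosed control group.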

The mark [1] stands for this setting: dose: 150.0 mg/kg/injection, schedule: Q04DX004 (ip), vehicle: saline with Tween-80.
[2] abbreviates: dose: 300.0 mg/kg/injection, schedule: Q04DX004 (ip), vehicle: saline with Tween-80.
[3] abbreviates: dose: 600.0 mg/kg/injection, schedule: Q04DX004 (ip), vehicle: saline with Tween-80.
Where [4] appears, read: dose: 400.0 mg/kg/injection, schedule: Q04DX004 (ip), vehicle: saline with Tween-80.
[5] abbreviates: dose: 200.0 mg/kg/injection, schedule: Q04DX004 (ip), vehicle: saline with Tween-80.

The list shows only some results of the screen, not a fair sample: it is rich in T/C values a quarter to a half above the control, in often repeated tests (any T/C) and in doses without a T/C. Other doses and runs of a compound stand elsewhere. T/C is the treated group as % of the vehicle group. Some entries give survivors of the animals treated and no T/C: the source files T/C as zero there, which appears to mark a toxic dose or a test without result, not a measured value. Some doses without a T/C left all or most animals alive at the check, yet need not have been tolerated: survival well below the control is almost never listed, so the zero probably covers shortened survival too. Survivors were counted at the toxicity check, usually on the fifth day, unless a day is given; later deaths do not show. Schedules are NCI's codes, read here as Q, the interval in days (D) or hours (H), X, the number of doses. Counts like (3×) say how often a value occurs here. Where survival is the endpoint, the PubChem record calls one and a half times the control and up active, and a quarter to a half above the control has no call in these data; cut-offs in other NCI protocols can differ. Some T/C values are followed by the survivors on the day toxicity was checked, most often the fifth; where none is given, no animal had died by that day.

As for `NCCCNCCCCNC(=O)C(O)NC(=O)CC(O)CCCCN=C(N)N` (stereo not given), the survivor count was 1 of 10 on day 14 (dose: 200.0 mg/kg/injection, schedule: Q04DX004 (ip), vehicle: saline); 0 of 10 on day 14 (dose: 400.0 mg/kg/injection, schedule: Q04DX004 (ip), vehicle: saline); 0 of 10 on day 14 (dose: 800.0 mg/kg/injection, schedule: Q04DX004 (ip), vehicle: saline).

Consider `CNc1ncn(-c2c(C)cccc2C)c(=O)n1`, for which the survivor count was 5 of 10 on day 14 under setting [1]; 6 of 10 on day 14 under setting [2]; 0 of 10 on day 14 under setting [3]; 0 of 10 on day 14 (2×) (dose: 1200.0 mg/kg/injection, schedule: Q04DX004 (ip), vehicle: saline with Tween-80).

As for `N#CC1C(=O)NC(=O)C(C#N)C1c1ccc(Cl)c(Cl)c1` (stereo not given), where the note is “dose: 800.0 mg/kg/injection, schedule: Q04DX004 (ip), vehicle: Klucel (hydroxypropylcellulose) (HPC)”, the survivor count was 0 of 10 on day 14.

Turning to `COc1cc2c(c(OC)c1OC)-c1cccc(=O)cc1C(NC(C)=O)CC2` (stereo not given), the T/C (dose: 50.0 mg/kg/injection, schedule: Q04DX004 (ip), vehicle: Klucel (hydroxypropylcellulose) (HPC)) is 128 % of control and the T/C (dose: 200.0 mg/kg/injection, schedule: Q04DX004 (ip), vehicle: Klucel (hydroxypropylcellulose) (HPC)) was 127 % of control. Also, the survivor count (dose: 400.0 mg/kg/injection, schedule: Q04DX004 (ip), vehicle: Klucel (hydroxypropylcellulose) (HPC)) is 0 of 10 on day 14.

Regarding `CC(C)CCC(=O)c1ccoc1`, the survivor count (dose: 4.0 mg/kg/injection, schedule: Q03HX012 (ip), vehicle: saline with Tween-80) is reported as 0 of 10 on day 14.

Take `CC(C)(C)c1noc2c1C(=O)c1ccccc1-2`: the survivor count under setting [4] is on record as 9 of 10 on day 14.

On to `Cc1cc2cc3cc(C)c(N)cc3nc2cc1N`, for which the survivor count runs as follows: under setting [5], 0 of 10 on day 14; under setting [4], 0 of 10 on day 14.

Turning to `COc1cc([N+](=O)[O-])ccc1C(=O)Nc1c2ccccc2nc2ccccc12`, the T/C (dose: 50.0 mg/kg/injection, schedule: Q04DX004 (ip), vehicle: saline with Tween-80) is 148 % of control [7 of 10 alive on day 14]. The survivor count is reported as 0 of 10 on day 14 (dose: 100.0 mg/kg/injection, schedule: Q04DX004 (ip), vehicle: saline with Tween-80); 0 of 10 on day 14 under setting [5]; 0 of 10 on day 14 under setting [4]; 0 of 10 on day 14 (dose: 800.0 mg/kg/injection, schedule: Q04DX004 (ip), vehicle: saline with Tween-80).

Turning to `COc1ccc(-n2[nH]c3c(cnc4ccccc43)c2=O)cc1`, the survivor count reads like this: (dose: 37.5 mg/kg/injection, schedule: Q04DX004 (ip), vehicle: saline with Tween-80) 10 of 10 on day 14; (dose: 75.0 mg/kg/injection, schedule: Q04DX004 (ip), vehicle: saline with Tween-80) 9 of 10 on day 14; under setting [1], 7 of 10 on day 14; under setting [2], 9 of 10 on day 14; under setting [3], 10 of 10 on day 14.
